Reference: the supplement of paper PMC3334620
In all, about 33,000 sequences were measured (“E-score (-0.5 to 0.5)”: median about -0.0014, highest 2% from about 0.25 on). This is one part of the list.

Target: T1, Cad1 (UniProt P24813)
T1 sequence: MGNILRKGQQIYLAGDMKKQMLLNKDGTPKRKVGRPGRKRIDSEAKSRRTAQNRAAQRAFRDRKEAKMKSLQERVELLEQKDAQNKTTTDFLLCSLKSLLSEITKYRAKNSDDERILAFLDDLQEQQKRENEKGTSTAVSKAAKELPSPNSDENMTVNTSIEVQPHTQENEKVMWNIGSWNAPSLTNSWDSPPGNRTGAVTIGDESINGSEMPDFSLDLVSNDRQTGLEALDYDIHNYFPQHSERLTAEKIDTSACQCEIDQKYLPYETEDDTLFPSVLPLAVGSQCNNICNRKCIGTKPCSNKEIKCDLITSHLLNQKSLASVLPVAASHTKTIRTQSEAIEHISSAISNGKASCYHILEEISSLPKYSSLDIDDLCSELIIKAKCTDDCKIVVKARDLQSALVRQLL
Experiment: PBM E-score (8-mer binding enrichment) (E-score (-0.5 to 0.5)); higher = stronger / more preferred TF binding
Details: protein concentration: 100 nM; construct: GST-full length
Procedure, shortened: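 Using PURExpress in vitro transcription/translation, GST-tagged yeast transcription factors were made in full-length or DNA-binding-domain form. These were applied at about 100-200 nM to double-stranded universal all-10-mer Agilent arrays, and bound protein was detected with fluorescent anti-GST. Scans were normalised with masliner before the Universal PBM Analysis Suite assigned E-scores to ungapped eight-base words pooled with their reverse complements.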

Row | Sequence | PBM E-score
1 | AGTAACAT | -0.00328
2 | AGCATGAT | -0.0237
3 | GGGATCCC | -0.132
4 | CAGTCTCA | 0.027
5 | ATGCCAGC | -0.159
6 | GATCCTCA | -0.00725
7 | AGGGCACA | -0.116
8 | AGCATTAC | -0.00103
9 | GGGATGAA | 0.047
10 | AAAACTTC | 0.0603
11 | AGTGCTTC | -0.157
12 | GAAGGTGA | -0.149
13 | ACTACTGA | -0.0674
14 | ATAAACCA | -0.0728
15 | ATCGCCTC | 0.0483
16 | ACTGCCGG | 0.0364
17 | AAAGTATC | 0.169
18 | AGGAATAG | 0.0547
19 | CTCGGCCC | -0.0795
20 | ACTCACAG | 0.126
21 | CTCCGATC | -0.0931
22 | TGCCTGAA | -0.0201
23 | AATCTCCG | 0.0886
24 | GAGGCATA | -0.0176
25 | CATTTCAA | 0.174

Six consecutive entries from above:
Row | Sequence | PBM E-score
11 | AGTGCTTC | -0.157
12 | GAAGGTGA | -0.149
13 | ACTACTGA | -0.0674
14 | ATAAACCA | -0.0728
15 | ATCGCCTC | 0.0483
16 | ACTGCCGG | 0.0364

Remaining list, next part

Row | Sequence | PBM E-score
26 | GCTGGAAA | 0.145
27 | CCACAGAG | -0.0523
28 | CCAAAACA | -0.111
29 | TCTATGAA | 0.1
30 | ATCCCAGA | -0.0262
31 | ACCTGCCA | -0.0914
32 | GGCTGCAA | -0.0399
33 | TGCTTCAA | 0.00302
34 | ACATTCCA | 0.12
35 | ATAGAGGA | -0.207
36 | AGGCAGTG | 0.0381
37 | ACCTCTCG | -0.24
38 | ATGTAGCG | -0.0465
39 | AATGGATC | 0.00673
40 | GAGATAAA | 0.0996
41 | ACCTCAGA | -0.0991
42 | AGGCCGCC | -0.177
43 | ACCGGCCA | -0.129
44 | GAGATCCC | -0.0668
45 | CTCACAAC | 0.156
46 | ATCCTCGA | 0.219
47 | TAATCGGA | 0.152
48 | CGTTAAGA | 0.0284
49 | TGTGGTAA | 0.147
50 | AGTCACAT | -0.0246

Row | Sequence | PBM E-score
51 | ATGGTCAC | 0.0209
52 | CGCGAGAG | -0.0112
53 | ACGGAAAA | 0.24
54 | AACCGGAC | 0.0203
55 | CCCATCCC | -0.142
56 | GCGTCGAA | 0.116
57 | CCTGCGAA | -0.0211
58 | CAGCAGAA | 0.0243
59 | CTAACTAG | 0.107
60 | CTACACGA | 0.0435
61 | AAACATCC | 0.0621
62 | ATGGCAAA | -0.0676
63 | AACATGAG | -0.00256
64 | CACACACA | 0.0256
65 | AGGCACAT | -0.0367
66 | CGCATGAA | 0.116
67 | AGAAGAAC | -0.101
68 | AATGTATC | 0.166
69 | TAAAACGA | -0.0435
70 | AATAGAGT | -0.312
71 | CAAGTGAG | -0.223
72 | CAATGTAA | 0.164
73 | ACAACCAG | 0.145
74 | ATGTACCC | -0.107
75 | ATTAATCA | 0.436

Row | Sequence | PBM E-score
76 | TCATGACA | 0.301
77 | GAACGACC | -0.245
78 | CCTGAAGA | 0.0275
79 | AAAACCGA | 0.0608
80 | AGCAGGGA | -0.0422
81 | CTCCACAG | -0.197
82 | AATCGAGG | 0.229
83 | AATGTCTG | 0.0901
84 | CGCGATGA | 0.244
85 | TCCCGTCA | -0.0555
86 | GACCACCC | -0.155
87 | TACACGAA | 0.131
88 | ATCCGTTG | 0.0806
89 | ACCTAGTC | -0.203
90 | AGGGCTAT | -0.225
91 | TCACATCA | 0.108
92 | CCTCATGA | 0.0793
93 | ATGGATGA | 0.0287
94 | CAAGAGGG | -0.247
95 | AACGTATG | -0.0601
96 | ACCACCCG | -0.148
97 | AGGAGTTA | -0.0455
98 | TACGGGAA | -0.154
99 | CGGGAGAA | -0.064
100 | ATTTGTCG | 0.147

Row | Sequence | PBM E-score
101 | ACTATGAC | 0.0514
102 | AGGGATGC | -0.317
103 | AAATTACG | -0.00187
104 | ACGAACTG | -0.0705
105 | AAGCCTTG | 0.00151
106 | ACGTAAGT | -0.102
107 | GACTATGC | 0.0921
108 | CCTATCCA | -0.149
109 | GCCTGGCC | -0.0384
110 | ATACGATA | 0.0741
111 | CCGGAGCC | -0.121
112 | ACCTTGAA | -0.0508
113 | CAGCCCGG | -0.0203
114 | GCGCGTAC | 0.177
115 | AGTCATCC | 0.069
116 | CATAAGGA | -0.0685
117 | TCAAGAGA | 0.00496
118 | ATCGCTCC | -0.0915
119 | CTCCGACA | -0.0623
120 | ACTCTTGG | -0.0149
121 | CCCATCGG | 0.0864
122 | AGGCTCTA | -0.206
123 | AACTGATC | -0.03
124 | ATTATCAA | 0.297
125 | CCGCAACG | 0.0864

Row | Sequence | PBM E-score
126 | CCATCCAC | 0.00183
127 | TCATATCA | 0.0259
128 | GTTGGATA | -0.00805
129 | ATAGGGTG | -0.182
130 | ACTAATCA | 0.344
131 | CAATTTCG | -0.0461
132 | ACACCGAG | -0.0203
133 | CCTGGAAG | -0.115
134 | ACTGGCGA | -0.221
135 | ACGACATC | -0.123
136 | CACTACCC | 0.0105
137 | CTGCCGAA | -0.159
138 | AATGGAAG | -0.0397
139 | AAAGAGAG | -0.246
140 | CCCGGAAA | 0.134
141 | ACTAGCGC | 0.0861
142 | CAGGATCG | -0.0584
143 | CCGGTCTC | -0.161
144 | AGCATGCG | 0.193
145 | ACTAGAGA | -0.224
146 | CTATGTGC | -0.0758
147 | CGGGCGAC | -0.302
148 | AGTCGTGA | 0.0708
149 | GTACCGGA | 0.0675
150 | GGGGGTTA | -0.4

Single values from above.
In PBM E-score, TACACGAA reads 0.131
In PBM E-score, CACTACCC reads 0.0105
In PBM E-score, CCGCAACG reads 0.0864

Continued.

Row | Sequence | PBM E-score
151 | CGCCGTCC | 0.138
152 | CCGGGATA | 0.0494
153 | AGTACTCA | 0.00679
154 | ACAATCCC | 0.0372
155 | AAGTTGGT | 0.252
156 | GCGCGCAA | 0.303
157 | CTACTATA | 0.00732
158 | ACAAGGAA | 0.0729
159 | CAAGTGTA | 0.113
160 | CTAGCACC | -0.0114
161 | ACCTTCCC | -0.143
162 | CGCTGACC | 0.117
163 | AGTTAAGA | -0.0062
164 | AAACGCAG | -0.0302
165 | AGCACTTG | -0.324
166 | GACTGGTA | -0.0461
167 | AAGTTCAG | -0.00226
168 | CGTATTGC | 0.0488
169 | ACGTTGGC | -0.143
170 | GGCGACCC | -0.332
171 | GACCATAC | -0.11
172 | CTTGGACC | -0.311
